Results are given in words; binding and its absence hold for the method and conditions named. Some entries that bind do so weakly or less than the wild type.
Columns and labels:
[1] = target: LI1159 (putative T3SS minor translocon protein), yeast two-hybrid fusions AD-HA-LI1159 and BD-c-Myc-LI1159 (Lawsonia intracellularis) (UniProt Q1MP64); assay: two-hybrid; S. cerevisiae Y2H Gold co-transformed with pGADT7 (AD) and pGBKT7 (BD) plasmids; serial dilution patch tests on selective medium (Leu-, Trp-; growth control) and low-stringency medium (Leu-, Trp-, His-)
[2] = target: LI1157 (putative class II chaperone of translocon proteins), yeast two-hybrid fusion AD-HA-LI1157 (Lawsonia intracellularis) (UniProt Q1MP66); assay: as above

## LI1159 (putative T3SS minor translocon protein), yeast two-hybrid fusions AD-HA-LI1159 and BD-c-Myc-LI1159 (from UniProt Q1MP64 1-265)
[1]
  binding: binds
[2]
  binding: binds

From paper PMC10664548
